Some of these results come from one statement about several compounds together. Starred links: 1 amine or outer side, 2 acyl side, 3 side chain; linkers in the order of their positions; H or OH if unused. Positions of bridges follow the written chain, without caps; N, C: chain ends. Non-standard residues stand in square brackets, D forms with d. Residues, ends and D or L forms follow the SMILES beside them. Pro(trans-4-Ph) = O=C(O)[C@@H]1C[C@@H](c2ccccc2)CN1; Pro(cis-4-Ph) = O=C(O)[C@@H]1C[C@H](c2ccccc2)CN1; Ala(morpholin-4-yl) = N[C@@H](CN1CCOCC1)C(=O)O; Bip = N[C@@H](Cc1ccc(-c2ccccc2)cc1)C(=O)O; X82 = C[C@@]1(C(=O)[*:2])CCN1[*:1]; Sar = CNCC(=O)O
The compounds below were run against TNFα (Homo sapiens, UniProt P01375) (assay: TNF-Induced HEK-Blue Assay). Conditions: summary statement for all examples; read-out: IC50 values measured in the TNF induced HEK-Blue assay.
Assay type: cell-based

The chains behind the UniProt entries cited, without tags or fusion partners. Residues count along the entry.
UniProt P01375, 77-233 limits assumed: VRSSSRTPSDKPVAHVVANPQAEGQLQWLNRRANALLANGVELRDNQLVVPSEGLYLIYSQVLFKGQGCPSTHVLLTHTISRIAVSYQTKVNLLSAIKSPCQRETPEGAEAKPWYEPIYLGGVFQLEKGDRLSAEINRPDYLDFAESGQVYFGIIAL

IC50, ≤ 25 µM:
CC(C)C[C@@H]1NC(=O)[C@H](Cc2ccc(O)cc2)NC(=O)[C@H](C(C)C)NC(=O)[C@]2(C)CCN2C(=O)[C@H](C(C)C)NC(=O)[C@H](CCCNC(=N)N)NC(=O)[C@H](CC(=O)O)NC(=O)[C@H](Cc2ccc(O)cc2)NC(=O)CN(C)C(=O)[C@H](Cc2ccc(-c3ccccc3)cc2)NC(=O)[C@H](Cc2ccc(-c3ccccc3)cc2)NC(=O)[C@H](CN2CCOCC2)NC(=O)CSC[C@@H](C(=O)NCC(N)=O)NC1=O [Example 93] ({CH2CO}-[Ala(morpholin-4-yl)][Bip][Bip][Sar]YDRV[X82]VYLCG-NH2; thioether N-13)
CC(C)C[C@@H]1NC(=O)[C@H](Cc2ccc(O)cc2)NC(=O)[C@H](C(C)C)NC(=O)[C@@H]2CCCN2C(=O)[C@H](C(C)C)NC(=O)[C@H](CCCNC(=N)N)NC(=O)[C@H](CC(=O)O)NC(=O)[C@@H]2C[C@H](c3ccccc3)CN2C(=O)CN(C)C(=O)[C@H](Cc2ccc(-c3ccccc3)cc2)NC(=O)[C@H](Cc2ccc(-c3ccccc3)cc2)NC(=O)[C@H](CN2CCOCC2)NC(=O)CSC[C@@H](C(=O)NCC(N)=O)NC1=O [Example 94] ({CH2CO}-[Ala(morpholin-4-yl)][Bip][Bip][Sar][Pro(cis-4-Ph)]DRVPVYLCG-NH2; thioether N-13)
CC(C)C[C@@H]1NC(=O)[C@H](Cc2ccc(O)cc2)NC(=O)[C@H](C(C)C)NC(=O)[C@@H]2CCCN2C(=O)[C@H](C(C)C)NC(=O)[C@H](CCCNC(=N)N)NC(=O)[C@H](CC(=O)O)NC(=O)[C@@H]2C[C@@H](c3ccccc3)CN2C(=O)CN(C)C(=O)[C@H](Cc2ccc(-c3ccccc3)cc2)NC(=O)[C@H](Cc2ccc(-c3ccccc3)cc2)NC(=O)[C@H](CN2CCOCC2)NC(=O)CSC[C@@H](C(=O)NCC(N)=O)NC1=O [Example 95] ({CH2CO}-[Ala(morpholin-4-yl)][Bip][Bip][Sar][Pro(trans-4-Ph)]DRVPVYLCG-NH2; thioether N-13)
CC(C)C[C@@H]1NC(=O)[C@H](CCCNC(=N)N)NC(=O)[C@H](C(C)C)NC(=O)[C@@H]2CCCN2C(=O)[C@H](C(C)C)NC(=O)[C@H](CCCNC(=N)N)NC(=O)[C@H](CC(=O)O)NC(=O)[C@@H]2C[C@H](c3ccccc3)CN2C(=O)CN(C)C(=O)[C@H](Cc2ccc(-c3ccccc3)cc2)NC(=O)[C@H](Cc2ccc(-c3ccccc3)cc2)NC(=O)[C@H](CN2CCOCC2)NC(=O)CSC[C@@H](C(=O)NCC(N)=O)NC1=O [Example 96] ({CH2CO}-[Ala(morpholin-4-yl)][Bip][Bip][Sar][Pro(cis-4-Ph)]DRVPVRLCG-NH2; thioether N-13)
CC(C)C[C@@H]1NC(=O)[C@H](CCCNC(=N)N)NC(=O)[C@H](C(C)C)NC(=O)[C@@H]2CCCN2C(=O)[C@H](C(C)C)NC(=O)[C@H](CCCNC(=N)N)NC(=O)[C@H](CC(=O)O)NC(=O)[C@@H]2C[C@@H](c3ccccc3)CN2C(=O)CN(C)C(=O)[C@H](Cc2ccc(-c3ccccc3)cc2)NC(=O)[C@H](Cc2ccc(-c3ccccc3)cc2)NC(=O)[C@H](CN2CCOCC2)NC(=O)CSC[C@@H](C(=O)NCC(N)=O)NC1=O [Example 97] ({CH2CO}-[Ala(morpholin-4-yl)][Bip][Bip][Sar][Pro(trans-4-Ph)]DRVPVRLCG-NH2; thioether N-13)
CC(C)C[C@@H]1NC(=O)[C@H](Cc2ccc(O)cc2)NC(=O)[C@H](C(C)C)NC(=O)[C@@H]2CCCN2C(=O)[C@H](C(C)C)NC(=O)[C@@H](CCCNC(=N)N)NC(=O)[C@H](CC(=O)O)NC(=O)[C@@H]2C[C@H](c3ccccc3)CN2C(=O)CN(C)C(=O)[C@H](Cc2ccc(-c3ccccc3)cc2)NC(=O)[C@H](Cc2ccc(-c3ccccc3)cc2)NC(=O)[C@H](CN2CCOCC2)NC(=O)CSC[C@@H](C(=O)NCC(N)=O)NC1=O [Example 98] ({CH2CO}-[Ala(morpholin-4-yl)][Bip][Bip][Sar][Pro(cis-4-Ph)]D[dR]VPVYLCG-NH2; thioether N-13)
